We go through three molecules from PMC10248797.

Where a chain is given by its changes, count along the chain named. In names and notes the source's numbering stands. These are yes or no findings as the source states them, for the method shown. Some entries that bind do so weakly or less than the wild type. Sequences can lack the tags named with a protein.

In experiment [1] the target is T1, Halo-Lis1 (UniProt P43034).
T1 sequence: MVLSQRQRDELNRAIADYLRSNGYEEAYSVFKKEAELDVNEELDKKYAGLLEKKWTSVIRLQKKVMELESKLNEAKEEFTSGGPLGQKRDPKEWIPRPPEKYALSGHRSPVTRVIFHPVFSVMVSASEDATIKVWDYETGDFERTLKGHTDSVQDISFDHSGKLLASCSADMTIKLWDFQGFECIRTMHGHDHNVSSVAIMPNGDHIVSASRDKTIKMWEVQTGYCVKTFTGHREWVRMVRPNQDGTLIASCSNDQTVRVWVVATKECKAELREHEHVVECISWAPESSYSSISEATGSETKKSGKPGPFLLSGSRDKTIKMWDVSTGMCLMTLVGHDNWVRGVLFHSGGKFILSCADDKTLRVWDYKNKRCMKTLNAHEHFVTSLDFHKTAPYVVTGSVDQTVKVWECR
In words: pull-down; 50 nM Halo-Lis1 on HaloTag beads; 5 nM dynein with 100 nM WT Ndel1 without HaloTag; depletion of dynein from solution; both purified.

The target in experiment [2] is T1, Halo-Lis1. In words: pull-down; 50 nM Halo-Lis1 on HaloTag beads; 5 nM dynein with 100 nM E48A Ndel1; depletion of dynein from solution; both purified.
Experiment [3] addresses T2, Halo-tagged full-length Ndel1 with C-terminal 6X-His tag (UniProt Q9GZM8).
T2 sequence: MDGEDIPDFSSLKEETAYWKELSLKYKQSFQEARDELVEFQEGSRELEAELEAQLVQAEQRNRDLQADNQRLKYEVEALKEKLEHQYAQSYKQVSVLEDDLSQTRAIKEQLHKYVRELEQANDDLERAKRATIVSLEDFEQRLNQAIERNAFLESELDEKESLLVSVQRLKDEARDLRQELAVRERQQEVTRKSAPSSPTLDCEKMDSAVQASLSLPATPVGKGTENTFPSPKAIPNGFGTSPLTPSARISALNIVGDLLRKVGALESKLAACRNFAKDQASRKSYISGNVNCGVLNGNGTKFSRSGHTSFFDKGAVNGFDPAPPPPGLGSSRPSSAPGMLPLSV
In words: pull-down; as a2 but at 36 mM KCl; data not shown; both purified.

B1: tagless FL-Ndel1 (i.e., no HaloTag) (protein, UniProt Q9GZM8 1-345)
chain: T2 sequence
With B1, the binding entry in experiment [1] is listed as “binds”.

B2: FL-Ndel1^E48A without HaloTag (protein, UniProt Q9GZM8 1-345)
chain: T2 sequence with E48A
With B2, in experiment [2], the binding result is recorded as “binds”.

B3: Lis1 (in solution) (protein, UniProt P43034 1-410)
chain: T1 sequence
Regarding B3, the binding entry in experiment [3] is given as “binds”.
